Experimental data from PubChem BioAssay AID1671190 (National Center for Advancing Translational Sciences (NCATS), 2021).
Several values for one entry are separate records, joined by “and”; a condition that tells them apart may be missing. Identical values can stand only once. The whole screen tested about 580,000 compounds, of which about 6,100 (1.1%) were called active. Inconclusive results, whose numbers are uncertain, are shown with a selection of clear calls. The call rests on the fitted dose curve; in most records, active means well fitted inhibition curve with a large enough effect; inconclusive means small, poorly fitted or top-dose-only effect, or another doubt; inactive means no such curve, though single readings can be large or run the other way. Potencies of inconclusive entries are doubtful fits and often do not repeat.

By UniProt entry, the sequences of proteins in these tests, tags left out. Where a name states a change or a piece, a line headed by the entry shows the natural chain unless it says otherwise.
UniProt P18054: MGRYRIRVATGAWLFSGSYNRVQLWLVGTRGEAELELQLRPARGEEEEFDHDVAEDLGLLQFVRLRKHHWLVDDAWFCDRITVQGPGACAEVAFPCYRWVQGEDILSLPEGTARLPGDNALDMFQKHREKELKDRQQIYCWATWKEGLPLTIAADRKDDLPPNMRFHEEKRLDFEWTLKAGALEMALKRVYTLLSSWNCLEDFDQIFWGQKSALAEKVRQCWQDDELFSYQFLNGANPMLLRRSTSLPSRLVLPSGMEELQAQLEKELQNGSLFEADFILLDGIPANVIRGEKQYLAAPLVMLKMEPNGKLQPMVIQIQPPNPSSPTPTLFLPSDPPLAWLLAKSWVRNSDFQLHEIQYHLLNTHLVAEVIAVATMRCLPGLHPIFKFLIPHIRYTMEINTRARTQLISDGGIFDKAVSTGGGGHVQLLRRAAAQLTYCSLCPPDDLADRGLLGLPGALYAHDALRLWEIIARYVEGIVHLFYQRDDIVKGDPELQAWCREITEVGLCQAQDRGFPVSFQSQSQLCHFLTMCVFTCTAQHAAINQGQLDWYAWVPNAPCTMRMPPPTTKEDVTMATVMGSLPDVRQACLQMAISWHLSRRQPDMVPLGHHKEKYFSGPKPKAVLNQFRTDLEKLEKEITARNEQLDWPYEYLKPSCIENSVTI

biological target: Polyunsaturated fatty acid lipoxygenase ALOX12 (Homo sapiens) (UniProt P18054); test: Primary qHTS assay for inhibitors of human arachidonate 12S-lipoxygenase (ALOX12): Round 2; settings: purified 12hLO, xylenol orange hydroperoxide absorbance; activity change, negative = inhibition: at 108 µM (top of the series) unless noted
Outline: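 Purified human 12hLO at 150 nM in 25 mM Hepes, 0.01% Triton X-100, pH 7.0, preincubated 15 min at room temperature with compound. Reaction started with 40 uM arachidonic acid, 30 min at room temperature. Hydroperoxide measured by Fe-xylenol orange, 573/405 nm absorbance ratio.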
On the % scale 0 is the no-effect control and ±100 the full control effect; potency means the concentration at half of the fitted maximal effect.

Row | SMILES | Potency | activity change, negative = inhibition
1 | COc1ccccc1[C@H]1C(c2cccc(C)c2)=NN(c2ccccc2)[C@@H]1CO | inconclusive: 44.7 µM [inhibitor, partial curve, poor fit] | 
2 | N#CC1=C(S)N(c2ccccc2)C(c2ccco2)NC1=O (stereo unspecified) | inconclusive: 44.7 µM [inhibitor, partial curve, poor fit] | 
3 | CCc1ccc(-c2csc(NC(=O)c3cccnc3)n2)cc1 |  | inactive: -9.14%
4 | Nc1nccnc1C(=O)NCCc1ccc(C(F)(F)F)cc1 |  | inactive: -25.5%
5 | COc1ccc(C2C(C(=O)c3ccco3)=C(O)C(=O)N2c2nnc(C)s2)cc1OC (stereo unspecified) | inconclusive: 56.2 µM [inhibitor, partial curve, poor fit] | 
6 | CCc1noc(-c2cn(C3CCN(C(=O)c4cc(OC)cc(OC)c4)CC3)nn2)n1 | inconclusive: 15.8 µM [inhibitor, partial curve, poor fit] | 
7 | C/C(=N\NC(=O)c1cc(Br)ccc1O)c1ccccn1 |  | inactive: 40.7%
8 | O[C@@H]1C[C@@H](c2nc(-c3ccc(F)cc3)no2)N(Cc2ccncc2)C1 | inconclusive: 11.2 µM [inhibitor, full curve] | 
9 | CC1=C(C#N)C(/C=N/OCc2ccc(F)cc2Cl)CC(=O)N1 (stereo unspecified) | inconclusive: 50.1 µM [inhibitor, partial curve, poor fit] | 
10 | COc1ccc(CNC(=O)CNC(=O)CNS(=O)(=O)c2ccc(C)c(C)c2)cc1 |  | inactive: -11.8%
11 | Clc1ccccc1-c1ccc2ncnc(NCc3ccc4c(c3)OCO4)c2c1 | inconclusive: 39.8 µM [inhibitor, partial curve, poor fit] | 
12 | Cc1ccc(S(=O)(=O)NN2C(=O)/C(=C/c3ccc(C(=O)O)cc3)SC2=S)cc1 | inconclusive: 44.7 µM [inhibitor, partial curve, poor fit] | 
13 | CCOC(=O)c1c(C)n(-c2ccccc2)c2ccc(OC(=O)c3ccccc3NC(=O)C(C)(C)C)cc12 | inconclusive: 112 µM [inhibitor, partial curve, poor fit] | 
14 | CC(CCc1ccccc1)NC(=O)CN1CCN(Cc2ccccc2)C1=O (stereo unspecified) |  | inactive: 18.8%
15 | CCOc1ccc(NC(=O)/C(C=Nc2ccccc2)=C(\C)O)cc1 |  | inactive: 10.5%
16 | COCC(=O)N1CCC2(CC1)CN(Cc1cnc(C(C)C)nc1)CCN2C |  | inactive: 29.8%
17 | COc1ccc(OC)c(NC(=O)C(C#N)=Cc2ccco2)c1 | inconclusive: 39.8 µM [inhibitor, single point] | 
18 | Cc1c(NC(=S)NC(=O)c2ccccc2Br)c(=O)n(-c2ccccc2)n1C | inconclusive: 25.1 µM [inhibitor, partial curve, poor fit] | 
19 | S=C(NCc1ccc(Cl)cc1)NN1CCOCC1 | inconclusive: 112 µM [inhibitor, partial curve, poor fit] | 
20 | CCOC(=O)Cn1nnnc1CN(Cc1ccc(OC)cc1)Cc1cc2cc(CC)ccc2[nH]c1=O | inconclusive: 12.6 µM [inhibitor, full curve, poor fit] | 
21 | COc1ccccc1NS(=O)(=O)c1cc2c(cc1Cl)NC(=O)CO2 | inconclusive: 1.26 µM [inhibitor, partial curve, poor fit] | 
22 | N=c1n(CCN2CCCCC2)c2ccccc2n1CC(O)c1cccc(Br)c1 (stereo unspecified) | inconclusive: 39.8 µM [inhibitor, single point] | 

Row | SMILES | Potency | activity change, negative = inhibition
23 | CC(=O)C1=C(O)C(=O)N(Cc2cccnc2)C1c1ccc(O)cc1 (stereo unspecified) | inconclusive: 3.55 µM [inhibitor, full curve, poor fit] | 
24 | COc1cc(C2CC(=O)N3CN(c4ccc(F)cc4)CSC3=C2C#N)cc(Br)c1O (stereo unspecified) | inconclusive: 1.58 µM [inhibitor, full curve, poor fit] | 
25 | COc1ccc(/C=N/Nc2nnc(Cc3ccc(OC)c(OC)c3)c(=O)[nH]2)cc1 |  | inactive: -15.1%
26 | COc1ccc(/C=C(/C#N)C(=O)Nc2ccc(C34CC5CC(CC(C5)C3)C4)cc2)cc1 |  | inactive: 9.54%
27 | CC1(C)CSC(=NCCc2ccccc2)N1C(=O)c1ccc(C#N)cc1 |  | inactive: -24.3%
28 | CCCNc1nc(-c2ccc(S(=O)(=O)N3CCOCC3)cc2)cs1 | inconclusive: 79.4 µM [inhibitor, partial curve, poor fit] | 
29 | CCCN1Cc2cccc(C(=O)Nc3cc(OC)cc(OC)c3)c2C1=O |  | inactive: 9.48%
30 | Cc1ccc(S(=O)(=O)NN/C(=N/S(=O)(=O)c2ccccc2)c2ccccc2)cc1 |  | inactive: -2.59%
31 | NC(=O)/C(=C/c1cccnc1)NC(=O)c1ccccc1 | inconclusive: 15.8 µM [inhibitor, single point] | 
32 | C=CCN(CC=C)S(=O)(=O)c1ccc2nc(NC(=O)C3CCCO3)sc2c1 (stereo unspecified) |  | inactive: -5.59%
33 | CCOC(=O)C1=C(C)NC(=S)NC1c1cccs1 (stereo unspecified) | inconclusive: 5.62 µM [inhibitor, full curve, poor fit] | 
34 | CCOc1ccc(CCNC(=O)CSc2cc(=O)n(C)c3ccc(Cl)cc23)cc1OCC | inconclusive: 56.2 µM [inhibitor, partial curve, poor fit] and inconclusive: 79.4 µM [inhibitor, partial curve, poor fit] | 
35 | O=C1C=C(N2CCCCC2)C2(CCCCC2)O1 |  | inactive: -8.13%
36 | CC(C)(C)c1ccc(-c2nc3cc(N)ccc3o2)cc1 | inconclusive: 112 µM [inhibitor, single point] | 
37 | CN(C)S(=O)(=O)c1cccc(C(=O)Nc2cc(Cl)ccc2O)c1 | inconclusive: 0.501 µM [inhibitor, full curve, poor fit] | 
38 | N#Cc1ccccc1OCC(=O)N1CCc2ccccc2C1 | inconclusive: 100 µM [inhibitor, partial curve, poor fit] | 
39 | Cc1ccc(NC(=O)CSc2ccc(-c3sc(-c4ccccc4)nc3C)nn2)cc1F |  | inactive: -14.2%
40 | COc1cccc(CCC(=O)N2CCN(C(=O)c3nnn4c3COC(c3ccc(C)cc3)C4)CC2)c1 (stereo unspecified) |  | inactive: 39.7%
41 | N#C/C(=C\c1cccc(OC(=O)c2ccccc2Cl)c1)C(=O)Nc1cccc(C(F)(F)F)c1 | inconclusive: 39.8 µM [inhibitor, partial curve, poor fit] | 
42 | Cc1cc(C(=O)OCC(=O)c2ccc3c(c2)NC(=O)CO3)c2ccccc2n1 | inconclusive: 14.1 µM [inhibitor, full curve, poor fit] | 
43 | CCOC(=O)C1=C(C)N=C2SC=C(CC(=O)NCC3CCCO3)N2C1c1ccc(Cl)cc1 (stereo unspecified) |  | inactive: 15.6%
44 | CN(C)S(=O)(=O)N(CC(=O)Nc1ccc(S(=O)(=O)N2CCCC2)cc1)c1ccccc1 | inconclusive: 50.1 µM [inhibitor, partial curve, poor fit] | 

Row | SMILES | Potency | activity change, negative = inhibition
45 | CCOc1cccc(C(=O)NC(=S)Nc2ccc(Cl)cc2C(=O)O)c1 | inconclusive: 50.1 µM [inhibitor, partial curve, poor fit] | 
46 | Cc1ccc(NCC(=O)Nc2ccc(Br)cc2)cc1F | inconclusive: 7.94 µM [inhibitor, partial curve, poor fit] | 
47 | O=C(c1ccc(F)c(Cl)c1)N1CCC2(CC1)N=C(c1ccccc1)NO2 |  | inactive: -13.7%
48 | O=C(Nc1ccc2cc[nH]c2c1)C(=O)NC1CCCCCC1 |  | inconclusive: -33.6% [inhibitor]
49 | Cc1cccc(OCc2n[nH]c(=S)n2C2CCCCC2)c1 | inconclusive: 22.4 µM [inhibitor, partial curve, poor fit] | 
50 | COC(=O)c1cc2c(c3c4cc(OC)ccc4n(S(=O)(=O)c4ccc(OC)cc4)c13)C(=O)N(Cc1ccco1)C2 | inconclusive: 8.91 µM [inhibitor, full curve, poor fit] | 
51 | COC(=O)c1cc(O)c(O)c(O)c1 | inconclusive: 35.5 µM [inhibitor, partial curve, poor fit] | 
52 | Cc1cccc(N2CCN(C(=O)CCSCc3ccccc3F)CC2)c1C | inconclusive: 141 µM [inhibitor, partial curve, poor fit] | 
53 | CCOC(=O)C1CCCN(C(=O)c2cccc3ccccc23)CC1 (stereo unspecified) | inconclusive: 141 µM [inhibitor, single point] | 
54 | CN(C)S(=O)(=O)c1ccc(C(=O)Nc2ccc(-n3nncc3-c3ccccc3)cc2)cc1 | inconclusive: 126 µM [inhibitor, partial curve, poor fit] | 
55 | COCCNc1ncnc2ccc(-c3ccccc3C)cc12 | active: 28.2 µM | 
56 | CCc1ccc(-c2cc(C(=O)O)c3ccccc3n2)s1 | inconclusive: 35.5 µM [inhibitor, partial curve, poor fit] | 
57 | N#Cc1nc(-c2ccc(S(=O)(=O)N3CCCCC3)cc2)oc1NCCCn1ccnc1 |  | inactive: -19.1%
58 | CC(=O)Nc1cc(F)ccc1-c1csc(NC(=O)C2CCCC2)n1 | inconclusive: 89.1 µM [inhibitor, single point] | 
59 | O=C(NCc1ccco1)c1cccnc1-c1nc2ccccc2s1 | inconclusive: 141 µM [inhibitor, partial curve, poor fit] | 
60 | Cc1nn(C(C)C(=O)O)c2ccccc12 (stereo unspecified) |  | inconclusive: -30.3% [inhibitor]
61 | COc1ccc(CN2C(=O)C(=O)c3cc(C)ccc32)cc1OC | inconclusive: 70.8 µM [inhibitor, partial curve, poor fit] | 
62 | COc1ccc(NC(=O)CN2C(=O)CSc3ccc(S(=O)(=O)N4CCCC4)cc32)cc1OC |  | inconclusive: -30.2% [inhibitor]
63 | CCN(CCCNC(=O)c1ccc(N2CCCC2=O)cc1)c1cccc(C)c1 |  | inactive: 0%
64 | CCOc1ccc(S(=O)(=O)N(CC(=O)NCCc2ccc(OC)c(OC)c2)c2ccccc2)cc1 |  | inactive: -7.66%
65 | COc1cc(/C=C/c2cc(C(=O)O)c3ccccc3n2)ccc1O | inconclusive: 44.7 µM [inhibitor, partial curve, poor fit] | 
66 | COc1ccccc1NC(=O)c1ccc([N+](=O)[O-])o1 | inconclusive: 112 µM [inhibitor, single point] | 
